{"source": "PubChem BioAssay AID504774 – Drosophila RNAi Screening Center – 2011", "screen": "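Genes required for cells to withstand methyl methanesulphonate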 (primary screen)", "system": "Drosophila Kc167 cells", "reagents": "long dsRNA against Drosophila genes, about 0.25 µg dsRNA per well", "duration": "about 6 days: 3 days knock-down, then 3 days with or without MMS", "challenge": "methyl methanesulphonate 0.004% (w/v) for 3 days after knock-down", "read-out": "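ATP-dependent luminescence as a measure of live cells in MMS-exposed wells, quantile normalised within each plate, with replicate values also given as a mean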", "direction": "mean viability with MMS: higher = more surviving cells after MMS", "note": "The screen tested about 23,000 reagents; below is a random part of those that have a named target and a result. 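Values are quantile-normalised luminescence on an arbitrary scale; higher means more cells surviving MMS.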 Names joined by + are all predicted targets of the reagent. Not all columns of the deposit are shown."}
{"target": "ple (pale)", "dsRNA": "DRSC11383", "mean viability with MMS": 3.33e6}
{"target": "loaf (lost and found)", "dsRNA": "DRSC09130", "mean viability with MMS": 3.56e6}
{"target": "futsch", "dsRNA": "DRSC17688", "mean viability with MMS": 3.57e6}
{"target": "futsch", "dsRNA": "DRSC17949", "mean viability with MMS": 3.53e6}
{"target": "futsch", "dsRNA": "DRSC17952", "mean viability with MMS": 3.64e6}
{"target": "futsch", "dsRNA": "DRSC18543", "mean viability with MMS": 3.45e6}
{"target": "CG2065", "dsRNA": "DRSC06813", "mean viability with MMS": 3.44e6}
{"target": "CG2065", "dsRNA": "DRSC21328", "mean viability with MMS": 3.44e6}
{"target": "CAH4 (Carbonic anhydrase 4)", "dsRNA": "DRSC22433", "mean viability with MMS": 3.61e6}
{"target": "Wsck", "dsRNA": "DRSC13682", "mean viability with MMS": 3.61e6}
{"target": "CG11134", "dsRNA": "DRSC19384", "mean viability with MMS": 1.98e6}
{"target": "CG31606", "dsRNA": "DRSC01012", "mean viability with MMS": 3.44e6}
{"target": "Obp57c (Odorant-binding protein 57c)", "dsRNA": "DRSC06384", "mean viability with MMS": 3.45e6}
{"target": "CG11068", "dsRNA": "DRSC19369", "mean viability with MMS": 3.60e6}
{"target": "bsh (brain-specific homeobox)", "dsRNA": "DRSC03498", "mean viability with MMS": 1.86e6}
{"target": "Act88F (Actin 88F)", "dsRNA": "DRSC14105", "mean viability with MMS": 3.38e6}
{"target": "S-Lap4 (Sperm-Leucylaminopeptidase 4)", "dsRNA": "DRSC10957", "mean viability with MMS": 3.46e6}
{"target": "SLIRP2 (SRA stem-loop interacting RNA binding protein 2)", "dsRNA": "DRSC16363", "mean viability with MMS": 3.61e6}
{"target": "Obp57e (Odorant-binding protein 57e)", "dsRNA": "DRSC05891", "mean viability with MMS": 3.43e6}

Ordered by “mean viability with MMS” (highest first): some entries from above.
{"target": "futsch", "dsRNA": "DRSC17952", "mean viability with MMS": 3.64e6}
{"target": "futsch", "dsRNA": "DRSC18543", "mean viability with MMS": 3.45e6}
{"target": "CG2065", "dsRNA": "DRSC06813", "mean viability with MMS": 3.44e6}

Continued.
{"target": "Fdh (Formaldehyde dehydrogenase)", "dsRNA": "DRSC16670", "mean viability with MMS": 3.59e6}
{"target": "CG42493", "dsRNA": "DRSC05309", "mean viability with MMS": 3.54e6}
{"target": "BoYb", "dsRNA": "DRSC11637", "mean viability with MMS": 3.62e6}
{"target": "U2A", "dsRNA": "DRSC06445", "mean viability with MMS": 3.32e6}
{"target": "CG13332", "dsRNA": "DRSC06367", "mean viability with MMS": 3.35e6}
{"target": "cyp33 + CG34194", "dsRNA": "DRSC05666", "mean viability with MMS": 3.79e6}
{"target": "CG7542", "dsRNA": "DRSC10868", "mean viability with MMS": 3.60e6}
{"target": "CG2310", "dsRNA": "DRSC15438", "mean viability with MMS": 3.44e6}
{"target": "Mal-A3 (Maltase A3)", "dsRNA": "DRSC07462", "mean viability with MMS": 3.48e6}
{"target": "CG5493 + CG5327", "dsRNA": "DRSC06938", "mean viability with MMS": 3.71e6}
{"target": "asp (abnormal spindle)", "dsRNA": "DRSC16903", "mean viability with MMS": 3.60e6}
{"target": "CG12116", "dsRNA": "DRSC17812", "mean viability with MMS": 3.58e6}
{"target": "kst (karst)", "dsRNA": "DRSC08719", "mean viability with MMS": 3.66e6}
{"target": "Wwox (WW domain containing oxidoreductase)", "dsRNA": "DRSC03030", "mean viability with MMS": 3.72e6}
{"target": "Wwox (WW domain containing oxidoreductase)", "dsRNA": "DRSC22872", "mean viability with MMS": 3.40e6}
{"target": "CG17167", "dsRNA": "DRSC20902", "mean viability with MMS": 3.48e6}
{"target": "CG17167", "dsRNA": "DRSC20903", "mean viability with MMS": 3.49e6}
